{"source": "the supplement of paper PMC11732987", "about": "“Enantioselective OTUD7B fragment discovery through chemoproteomics screening and high-throughput optimisation” (Communications Chemistry, 2025)", "note": "The other results are listed elsewhere or left out. The data scatter; read single values as rough.", "data": [{"molecular_target": "T1, WASHC2A C259 (UniProt Q641Q2)", "T1 sequence (whole entry)": "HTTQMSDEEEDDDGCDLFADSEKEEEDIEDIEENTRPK", "assay": "log2 mean competition ratio of IA-DTB cysteine labelling (DMSO/compound) (log2 ratio); higher = stronger cysteine engagement by compound", "settings": "50 µM; treatment time: 4 h; cell line lysate: HEK293T", "method": "(§1)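 IA-DTB competitive cysteine chemoproteomics in HEK293T RIPA lysate. Lysates were treated with compound 29 or 30 at 50 or 200 µM for 4 h, then IA-DTB (500 µM, 1 h), trypsin-digested, NeutrAvidin-enriched and analysed by diaPASEF. Competition ratio = intensity DMSO / intensity compound (n=4 treated, n=64 DMSO); binding: mean log2 CR ≥ 1 and p ≤ 0.05 plus QC filters. Target is the cysteine site.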", "values": [{"smiles": "O=C(CCl)N[C@H]1CCCc2ccccc21", "log2 mean competition ratio": 0.0396}, {"smiles": "O=C(CCl)N[C@@H]1CCCc2ccccc21", "log2 mean competition ratio": -0.362}]}, {"molecular_target": "T1, WASHC2A C259", "assay": "log2 mean competition ratio of IA-DTB cysteine labelling (DMSO/compound) (log2 ratio); higher = stronger cysteine engagement by compound", "settings": "200 µM; treatment time: 4 h; cell line lysate: HEK293T", "method": "as §1", "values": [{"smiles": "O=C(CCl)N[C@H]1CCCc2ccccc21", "log2 mean competition ratio": -0.352}, {"smiles": "O=C(CCl)N[C@@H]1CCCc2ccccc21", "log2 mean competition ratio": 0.0155}]}]}
